From PubChem BioAssay AID2551 (National Center for Advancing Translational Sciences (NCATS), 2010)
The campaign covered roughly 310,000 compounds. About 17,000 (5.5%) were called active. This list was built around the results that the source calls inconclusive (neither active nor inactive); the mix of calls is not that of the screen. Calls follow the shape of the dose curve; as a rule, active = well fitted inhibition curve with a large enough effect; inconclusive = small, poorly fitted or top-dose-only effect, or effect the other way; inactive = no such curve, though single readings can be large or run the other way. Potencies of inconclusive entries are doubtful fits and often do not repeat.

By UniProt entry, the sequences of proteins in these tests, tags left out. Where a name states a change or a piece, a line headed by the entry shows the natural chain unless it says otherwise.
UniProt P51450: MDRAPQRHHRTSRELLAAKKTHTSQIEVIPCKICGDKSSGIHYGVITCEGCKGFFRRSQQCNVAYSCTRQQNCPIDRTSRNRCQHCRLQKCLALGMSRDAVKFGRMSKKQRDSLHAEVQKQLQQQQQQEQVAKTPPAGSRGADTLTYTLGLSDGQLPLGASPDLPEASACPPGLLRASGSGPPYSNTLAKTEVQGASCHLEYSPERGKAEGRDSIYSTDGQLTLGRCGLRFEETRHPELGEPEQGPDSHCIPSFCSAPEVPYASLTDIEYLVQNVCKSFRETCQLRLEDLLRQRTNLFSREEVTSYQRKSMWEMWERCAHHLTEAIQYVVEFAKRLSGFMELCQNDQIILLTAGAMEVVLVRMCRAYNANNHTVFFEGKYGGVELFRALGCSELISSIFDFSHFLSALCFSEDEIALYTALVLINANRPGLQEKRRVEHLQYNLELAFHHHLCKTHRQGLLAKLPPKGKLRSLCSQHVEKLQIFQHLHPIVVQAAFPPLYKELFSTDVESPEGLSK

The compounds below were run against Nuclear receptor ROR-gamma (Mus musculus) (UniProt P51450) (assay: qHTS for inhibitors of ROR gamma transcriptional activity). Conditions: Drosophila S2 Gal4-RORgamma UAS-luciferase reporter, 20 h; series mostly up to 53.6 µM.
Outline: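 A Gal4/UAS one-hybrid system in insect cells: metallothionein-promoter Gal4–ROR gamma fusion plus Photinus luciferase reporter. Copper sulfate 700 uM final, 20 hr ambient incubation, luminescent detection after 10 min with reagent.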
Also: nearly all actives have a fitted effect of over 60% in size.
Potency is read from the fitted curve at half-maximal effect.

Q: With `CC(=O)C1=C(C)NC(SCC(=O)c2cc(Cl)ccc2Cl)=C(C#N)C1c1ccco1` (stereo not drawn) as the compound, how does the Potency read?
A: active: 6.31 µM

Q: `CC(=O)c1sc(NC(=O)CCNC(=O)c2ccco2)nc1-c1ccccc1` was tested. Which Potency did it give?
A: inconclusive: 17.8 µM [activator, single point]

Q: Which Potency does the source give for `COCCCNC(=O)CSc1c2c(nc3ccc(Cl)cc13)CCCC2` here?
A: inconclusive: 14.1 µM [inhibitor, single point]

Q: `O=c1c(-c2ccccc2)nc2cnc(Oc3ccccc3)nc2n1C1CC1` was tested. Which Potency did it give?
A: inconclusive: 1 µM [activator, partial curve, poor fit]

Q: `CC1CN(S(=O)(=O)c2cccc(C(=O)OC/C(O)=C(\C#N)c3nc4ccccc4[nH]3)c2)CC(C)O1` (stereo not drawn) was tested. Which Potency did it give?
A: active: 11.2 µM

Q: With `CCC(=O)N1CCc2cc(Br)cc(S(=O)(=O)N(C)c3ccc(OC)cc3OC)c21` as the compound, how does the Potency read?
A: inconclusive: 4.47 µM [activator, partial curve]

Q: For `CCCCn1c(NCc2ccccc2O)nc2ccccc21`, which Potency is on record?
A: inconclusive: 12.6 µM [activator, partial curve]

Q: `CCC(=O)N(Cc1cc2cc(OC)ccc2[nH]c1=O)c1ccc(C)cc1` was tested. Which Potency did it give?
A: inconclusive: 10 µM [activator, partial curve]

Q: `O=C(CSc1nnc2c3ccccc3c3ccccc3c2n1)Nc1ccccc1F` was tested. Which Potency did it give?
A: inconclusive: 20 µM [inhibitor, partial curve]

Q: With `Cc1ccc(OCCn2cc(/C=C(\C#N)C(=O)NCC3CCCO3)c3ccccc32)cc1` (stereo not drawn) as the compound, how does the Potency read?
A: inconclusive: 35.5 µM [activator, single point]

Q: With `CC(=O)c1c(C)oc2ccc(N(C(=O)c3ccncc3)S(=O)(=O)c3ccccc3)cc12` as the compound, how does the Potency read?
A: inconclusive: 5.62 µM [inhibitor, single point]

Q: For `CCOc1cc(/C=C2\SC(=N)N(c3nccs3)C2=O)ccc1OCCN1CCOCC1`, which Potency is on record?
A: active: 0.562 µM

Q: For `COc1ccc(C)cc1S(=O)(=O)N1CCOCC1`, which Potency is on record?
A: inactive

Q: Which Potency does the source give for `CCOC(=O)C(NC(=O)c1cccc(Cl)c1)(OCc1ccccc1)C(F)(F)F` (stereo not drawn) here?
A: inconclusive: 14.1 µM [activator, single point]

Q: Which Potency does the source give for `CCCCC(=O)NNC(=S)NC(=O)c1cccc([N+](=O)[O-])c1` here?
A: active: 1 µM

Q: With `CCOc1cc(N2CCOCC2)c(OCC)cc1NC(=O)COC(=O)c1cc2ccccc2cc1O` as the compound, how does the Potency read?
A: inactive

Q: `C=CCOc1c(Br)cc(CNn2c(C)n[nH]c2=S)cc1OC` was tested. Which Potency did it give?
A: inconclusive: 11.2 µM [inhibitor, partial curve, poor fit]

Q: `Cc1c(Cc2ccccc2)c(=O)oc2cc(OCC(=O)NC(Cc3ccc(Cl)cc3)C(=O)O)ccc12` (stereo not drawn) was tested. Which Potency did it give?
A: inactive

Q: With `CC(C)(C)C(=O)N1CCN(c2nc3ccc(Br)cc3s2)CC1` as the compound, how does the Potency read?
A: inconclusive: 1.26 µM [activator, full curve]

Q: `CCSc1nnc(-c2cccnc2)n1Cc1ccco1` was tested. Which Potency did it give?
A: inactive

Q: Which Potency does the source give for `CCOC(=O)c1ccccc1Oc1c(F)c(F)nc(NCCO)c1F` here?
A: inconclusive: 15.8 µM [activator, single point]

Q: `O=C(c1ccc(-c2ccc([N+](=O)[O-])cc2Cl)o1)N1CCOCC1` was tested. Which Potency did it give?
A: inactive

Q: Which Potency does the source give for `O=C(Nc1sc(-c2ccccc2)cc1C(=O)O)c1ccccc1` here?
A: inconclusive: 0.891 µM [activator, partial curve]

Q: With `Clc1ccc(N/N=C/c2ccncc2)cc1Cl` as the compound, how does the Potency read?
A: inconclusive: 7.08 µM [activator, partial curve]

Q: `Cc1cccc(C)c1NC(=S)N=Nc1c(O)n(C)c2ccc(S(=O)(=O)N3CCOCC3)cc12` was tested. Which Potency did it give?
A: active: 1.26 µM

Q: For `Cc1cccc(NC(=S)N=Nc2c(O)[nH]c3ccccc23)c1`, which Potency is on record?
A: active: 1.41 µM

Q: For `COc1cc(CNn2cn[nH]c2=S)cc(Cl)c1OCc1ccccc1`, which Potency is on record?
A: active: 3.55 µM

Q: How did the Potency turn out when `O=S(=O)(Nc1nc2ccccc2nc1Nc1ccc2c(c1)OCO2)c1ccccc1` was run?
A: inconclusive: 17.8 µM [activator, partial curve]

Q: For `Cc1ccc(/C=N/n2c(C3CCCCC3)n[nH]c2=S)cc1`, which Potency is on record?
A: active: 2.51 µM

Q: With `Cc1ccc(NC2=CC(=O)CC(c3ccc(Cl)cc3)C2)cc1` (stereo not drawn) as the compound, how does the Potency read?
A: inconclusive: 14.1 µM [activator, partial curve]

Q: How did the Potency turn out when `O=C(Cc1cccs1)N/N=C/C=C/c1ccco1` was run?
A: inconclusive: 35.5 µM [inhibitor, single point]

Q: Which Potency does the source give for `COc1ccc(-c2nc(-c3cccs3)c(-c3cccs3)[nH]2)cc1OC` here?
A: inconclusive: 35.5 µM [activator, single point]

Q: Which Potency does the source give for `CC(=O)N1c2ccc(S(=O)(=O)N3CCC(C(=O)Nc4cccc(C)c4)CC3)cc2CC1C` (stereo not drawn) here?
A: inactive

Q: Which Potency does the source give for `COCc1cc(C)nc(SCC(=O)Nc2ccccc2N2CCOCC2)c1C#N` here?
A: inactive

Q: With `COCCNC(=O)C(=O)Nc1cccc(Br)c1` as the compound, how does the Potency read?
A: inconclusive: 12.6 µM [activator, partial curve]

Q: With `CC1CCCC(NC(=O)c2cccc(N3CCCC3=O)c2)C1C` (stereo not drawn) as the compound, how does the Potency read?
A: inconclusive: 35.5 µM [inhibitor, single point]

Q: How did the Potency turn out when `COc1ccc(C(=O)Nc2nc3ccccc3s2)cc1` was run?
A: active: 5.01 µM

Q: `Cc1ccc(Cn2cc(/C=N/Nc3ccc([N+](=O)[O-])cn3)c3ccccc32)cc1` was tested. Which Potency did it give?
A: active: 11.2 µM

Q: For `CS(=O)(=O)c1ccc2nc(NC(=O)c3ccc(NS(=O)(=O)c4ccc(F)c(F)c4)cc3)sc2c1`, which Potency is on record?
A: inconclusive: 35.5 µM [inhibitor, single point]

Q: `Cc1noc(C)c1CSCC(=O)NC1=NCCS1` was tested. Which Potency did it give?
A: inconclusive: 1.41 µM [inhibitor, partial curve, poor fit]

Q: With `COc1cc(/C=C/C(=O)Nc2cc(C(F)(F)F)ccc2Cl)cc(OC)c1OC` as the compound, how does the Potency read?
A: inconclusive: 15.8 µM [activator, single point]

Q: For `NC(=O)Cc1ccc(C(=O)c2ccc(Cl)cc2)s1`, which Potency is on record?
A: inconclusive: 1.41 µM [activator, partial curve]

Q: Which Potency does the source give for `O=C(Nc1ccc(Br)cn1)c1ccc([N+](=O)[O-])o1` here?
A: inconclusive: 22.4 µM [inhibitor, single point]

Q: `OCC[C@@H]1C[C@H](O)[C@@H](O)[C@@]2(Cc3ccccc3O2)O1` was tested. Which Potency did it give?
A: inactive

Q: With `CC1Sc2ccc(S(=O)(=O)CCC(=O)N(C)Cc3ccccc3)cc2NC1=O` (stereo not drawn) as the compound, how does the Potency read?
A: inconclusive: 10 µM [activator, partial curve, poor fit]

Q: Which Potency does the source give for `Cc1ccc2[nH]c(=O)c(CN(Cc3ccco3)C(=O)CN3CCCC(C)C3)cc2c1` (stereo not drawn) here?
A: inactive

Q: For `CC(=O)c1c(C)[nH]c(C(=O)OCC(=O)c2c(N)n(C)c(=O)n(C)c2=O)c1C`, which Potency is on record?
A: inactive

Q: `O=C(Nc1cccc2cccnc12)c1cccc(N2C(=O)CCC2=O)c1` was tested. Which Potency did it give?
A: inactive

Q: How did the Potency turn out when `CCC(C)N(CCNC(=O)c1ccc2c(c1)NC(=O)c1ccccc1S2)C1CCCCC1` (stereo not drawn) was run?
A: inactive

Q: How did the Potency turn out when `NC(=O)c1ccc(NC(=O)COC(=O)CC(NC(=O)c2ccccc2Cl)c2ccccc2)cc1` (stereo not drawn) was run?
A: inconclusive: 8.91 µM [activator, partial curve]

Q: Which Potency does the source give for `CCCCn1c(CN2CCN(C(=O)c3ccco3)CC2)nc2c1c(=O)n(C)c(=O)n2C` here?
A: inconclusive: 0.891 µM [activator, full curve]

Q: How did the Potency turn out when `Clc1cccc(Nc2nc(N3CCOCC3)nc(N3CCOCC3)n2)c1` was run?
A: inactive

Q: For `CSCCNC(=O)c1ccc(C(C)(C)C)cc1`, which Potency is on record?
A: inconclusive: 15.8 µM [inhibitor, single point]

Q: `Cc1ccc(/C([O-])=C(/C(=S)NCc2ccco2)[n+]2ccccc2)cc1` was tested. Which Potency did it give?
A: inactive

Q: `Cc1c(NC(=S)NC(=O)c2cc3ccccc3o2)cccc1C(=O)O` was tested. Which Potency did it give?
A: inconclusive: 10 µM [inhibitor, partial curve, poor fit]

Q: With `O=C(NC(=S)N1CCN(Cc2ccccc2)CC1)c1cccnc1` as the compound, how does the Potency read?
A: active: 0.891 µM

Q: With `CCN1CCN(C(=O)c2cc3cc4ccc(OC)cc4nc3s2)CC1` as the compound, how does the Potency read?
A: inconclusive: 5.62 µM [activator, single point]

Q: How did the Potency turn out when `COc1cccc(/C=N/NC(=O)NC2CCCCC2)c1O` was run?
A: active: 6.31 µM

Q: How did the Potency turn out when `COC(=O)c1cc(NC(=O)c2ccc(Cn3cc(Cl)cn3)o2)cc(C(=O)OC)c1` was run?
A: inconclusive: 35.5 µM [inhibitor, single point]

Q: With `COc1ccccc1CNC(=O)C1CC(c2c(Cl)cccc2Cl)=NO1` (stereo not drawn) as the compound, how does the Potency read?
A: inconclusive: 10 µM [activator, partial curve]

Q: With `CCOC(=O)c1ccc2c(c1)NC(=O)C(N1CCN(c3ccc(OC)cc3)CC1)S2` (stereo not drawn) as the compound, how does the Potency read?
A: inactive

Q: How did the Potency turn out when `C=C(C)Cn1c(-c2ccncc2)n[nH]c1=S` was run?
A: active: 12.6 µM

Q: For `COCCNC(=S)N/N=C(\C)c1ccc(C)c([N+](=O)[O-])c1`, which Potency is on record?
A: active: 3.55 µM

Q: For `CCC(=O)N1CCc2cc(Br)cc(S(=O)(=O)NCC3CCCO3)c21` (stereo not drawn), which Potency is on record?
A: inconclusive: 11.2 µM [inhibitor, single point]

Q: `CC(C)/C=C(/C(=O)c1ccc(Cl)cc1Cl)n1cncn1` was tested. Which Potency did it give?
A: inconclusive: 35.5 µM [inhibitor, single point]

Q: With `CSc1nc(Oc2ccc3ccccc3c2)c2ccccc2n1` as the compound, how does the Potency read?
A: inconclusive: 6.31 µM [activator, single point]

Q: With `CCOC(=O)c1nc(NCc2cccnc2)c2ccccc2n1` as the compound, how does the Potency read?
A: inconclusive: 2.82 µM [activator, full curve]

Q: For `On1c(-c2ccc(Cl)cc2)nc2ccccc21`, which Potency is on record?
A: inconclusive: 35.5 µM [inhibitor, single point]

Q: `CCC1(CC)Cc2ccccc2-c2nc(NCCO)[nH]c(=O)c21` was tested. Which Potency did it give?
A: inconclusive: 15.8 µM [activator, single point]

Q: How did the Potency turn out when `Cc1nnc2c(NC(C)C)nc3ccccc3n12` was run?
A: inconclusive: 14.1 µM [inhibitor, partial curve]

Q: `CC(=O)c1c(N2CCOCC2)[nH]c(-c2ccccc2)nc1=S` was tested. Which Potency did it give?
A: active: 1.12 µM

Q: How did the Potency turn out when `Cc1[nH]c2ccc(C(C)C)cc2c1CC(=O)O` was run?
A: inactive

Q: Which Potency does the source give for `CC(=O)Nc1cccc(NC(=O)CSc2nc3c(c(=O)n(C)c(=O)n3C)n2C)c1` here?
A: inactive
